This note sets out measurements from ChEMBL document CHEMBL4296182, “CO-ADD screening of NIH NCI Diversity Set V”.

Molecules are shown by their SMILES. The list shows a part of the results. Entries with a potency or affinity are not part of this list.

For the assay, the system named is Pseudomonas aeruginosa. The following applies: Concentration 20 uM; ASSAY_TEST Inhibition of Bacterial Growth; detection method Absorption (OD600); MEDIA CAMHB; plate type 384well; NBS; CORNING #3640; time 18 hr.
As for `O=c1nc(C(F)(F)C(F)(F)C(F)(F)F)[nH]o1`, the Inhibition turned out to be 4.49%.
As to `c1cnc2c(c1)ccc1ncccc12`, the Inhibition worked out at 13.33%.
With `N#CC12CNCC1CN=N2` (stereo unspecified) the figure was -9.75%; with `Cc1nc(C)c(C(=O)N/N=C/c2ccc(N(CCCl)CCCl)cc2)s1`, 14.63%.
With `Cc1ccc(N2C(=O)C(=CN)C(=O)N(c3ccc(C)cc3)C2=O)cc1` the figure was 22.46%; with `CN1CCN(c2nc(N)cc(O)n2)CC1`, -0.59%.
With `CC(C)(C)c1cc(C=C(C#N)C#N)cc(C(C)(C)C)c1O` [TYRPHOSTIN A9] the figure was 10.25%; with `FCCN(CCF)c1cccc(Cl)c1`, 9.25%; with `O=C1/C(=C\c2ccccc2)C2OCC=C3CN4CCC56c7ccccc7N1C5C2C3CC46` (stereo unspecified), 25.76%.
For `O=[N+]([O-])c1cc([As](=O)(O)c2ccc(O)c([N+](=O)[O-])c2)ccc1O`, the Inhibition came out at 23.48%.
With `Nc1nc(N)c2cnnn2n1` the figure was -10.93%; with `O=P(OC1=CCCCC1)(c1ccccc1)c1ccccc1`, 8.74%; with `O=C1N(c2nncs2)CCN1[N+](=O)[O-]`, 7.04%.
Regarding `CN1C2CCC1[C@@H](COC(=O)c1ccccc1)[C@@H](O)C2` (stereo partly specified), the Inhibition is -11.83%.
On to `CCCC(=O)N(C)C1=Nc2ccc(Cl)cc2C(c2ccccc2)=[N+]([O-])C1`, for which the Inhibition was 12.3%.
Turning to `Cc1nccc2c1[nH]c1cc(O)ccc12`, the Inhibition amounted to 15.56%.
In the case of `Cc1ccc2cc3c(ccc4ccccc43)c3c2c1CC3` [3-METHYLCHOLANTHRENE], the Inhibition is 25.55%.
As to `O=C1CN=C(c2ccc[nH]2)c2cc(Cl)ccc2N1`, the Inhibition was -0.79%.
As for `C[C@H]1CC[C@H]2NCCN[C@H]2C1`, the Inhibition was 26.77%.
Turning to `CCc1cc2c(cc1-c1csc(CC(=N)NO)n1)C(C)(C)CCC2(C)C`, the Inhibition is recorded as -14.69%.
With `O=c1cccc2n1C[C@H]1CNC[C@H]2C1` the figure was 4.01%; with `CCOP(=O)(OCC)/C(C#N)=C/c1ccc(Br)cc1`, 28.48%; with `CS(=O)(=O)O.O=C1CCC2(O)[C@@H]3Cc4ccc(O)c5c4[C@]2(CCN3Cc2ccoc2)C1O5` (stereo partly specified), -12.23%.
Regarding `c1ccc(C2NCCc3[nH]cnc32)cc1` (stereo unspecified), the Inhibition is given as -6.54%.
In the case of `C[C@H]1CC[C@@]2(C)[C@@H](CC[C@@H]3[C@@H]2CC[C@]2(C)[C@@H](O)CC[C@@H]32)C1`, the Inhibition was determined as 5.17%.
As for `NN=C1C(Cl)=C(Cl)C(Cl)=C1Cl`, the Inhibition was -24.45%.
Turning to `CCN(CC)c1ccc(C=C2C(=O)NC(=S)NC2=O)cc1`, the Inhibition is recorded as -12.94%.
In the case of `c1cncc(C2Nc3cccc4cccc(c34)N2)c1`, the Inhibition is recorded as -23.18%.
Regarding `CN1C(=O)CC[C@@]2(C)C1=CC[C@@H]1[C@@H]2CC[C@@]2(C)[C@H]1CC[C@]2(C)O`, the Inhibition is 16.23%.
For the compound `CN1CCCC1c1ccc(O)nc1` (stereo unspecified), the Inhibition stood at 22.02%.
For the compound `CN1C2c3ccccc3C3C4c5ccccc5C(C31)C(C2[N+](=O)[O-])N4C` (stereo unspecified), the Inhibition was determined as 28.89%.
Take `CC(=O)Nc1cc([As](=O)(O)O)ccc1O` [ACETARSONE]: the Inhibition is recorded as 6.7%.
As to `CC12CCC3C(CCC4Cc5[nH]c6ccccc6c5CC43C)C1CCC2O` (stereo unspecified), the Inhibition was determined as 17.33%.
With `CCN1CCc2ccccc2C1` the figure was 23.03%; with `NC=C1C(=O)N(c2ccccc2)C(=O)N(c2ccccc2)C1=O`, 27.98%.
With `O=c1cccc2n1C[C@H]1C[C@@H]2CN2CCCC[C@@H]12` the figure was 2.05%; with `CCC(CO)NC(=O)C1C=C2c3cccc4[nH]cc(c34)CC2N(C)C1` (stereo unspecified), -11.27%; with `O=C(Oc1ccccc1)N(c1ccccc1)c1ccccc1`, 9.65%.
Turning to `COc1ccc(OC(=O)Nc2ccc([N+](=O)[O-])cc2OC)cc1`, the Inhibition is 14.08%.
For the compound `Cc1c(CCN)ccc2c1[nH]c1ccccc12`, the Inhibition was -0.06%.
With `COc1ccc(CCNC2(C#N)CCCCC2)cc1OC`, the Inhibition came to 10.69%.
With `[Cl-].c1ccc(-c2nn(-c3ccccc3)[n+](-c3ccccc3)n2)cc1` [TETRAZOLIUM RED] the figure was 16.55%; with `O=C(CF)N(O)c1ccc(/C=C/c2ccccc2)cc1`, 4.77%; with `Cc1cc(OCCN2CC2)c2ccccc2n1`, 13.17%.
In the case of `O=C(NC(=O)c1c(F)cccc1F)Nc1cc(Cl)c(F)c(Cl)c1F` [TEFLUBENZURON], the Inhibition turned out to be 15.11%.
Consider `CC1CC(C)OP(=O)(OCCC#N)O1` (stereo unspecified), for which the Inhibition was found to be 10.89%.
With `COc1ccc2c(c1)NP(=S)(Oc1ccccc1)N2` (stereo unspecified), the Inhibition was -3.1%.
For `CN(C)P(=O)(N(C)C)N1CC1`, the Inhibition came to 29.31%.
For `O=C1C[C@@H]2OCC=C3C[N+]4([O-])CC[C@]56c7ccccc7N1[C@H]5[C@H]2[C@H]3C[C@@H]64` (stereo partly specified), the Inhibition is given as 9.12%.
In the case of `C1CC2NCCC3NCCC(N1)N32` (stereo unspecified), the Inhibition worked out at 27.86%.
As to `Cn1cc(C=O)c2nccnc21`, the Inhibition is -20.09%.
`CC(=O)Nc1ccc([As](=O)(O)c2ccc([N+](=O)[O-])cc2)cc1`: the Inhibition is reported as 8.63%.
Consider `CCOC(=O)c1ccc2nc(-c3ccc(S(=O)(=O)F)cc3)cc(O)c2c1`, for which the Inhibition is 14.09%.
With `CSc1nc(=O)c(/N=N/c2ccc([As](=O)(O)O)cc2)c(N)[nH]1` the figure was 24.01%.
As to `N=C(N)N/N=C/c1c(Cl)cccc1Cl` [GUANABENZ], the Inhibition stood at 14.02%.
Consider `CN1C(=O)NC(=O)C(/N=N/c2ccc(Cl)cc2)C1=O` (stereo unspecified), for which the Inhibition was determined as 5.3%.
As for `COc1cc(C=C2C(=O)NC(=O)NC2=O)ccc1O`, the Inhibition amounted to 13%.
With `Cc1c(C(=O)c2ccccc2)c2ccccc2n1C` the figure was 15.69%.
On to `COc1cc2c(cc1O)CC1c3c(cc(O)c(OC)c3-2)CCN1C` (stereo unspecified), for which the Inhibition is reported as 17.23%.
With `O=C(O)CN1C(=O)CN=C(c2ccccn2)c2cc(Cl)ccc21`, the Inhibition is listed as 13.04%.
With `CN(C)C1CCc2[nH]c3c(F)cc(F)cc3c2C1` (stereo unspecified) [FLUCINDOLE] the figure was 4.86%; with `CCC1CN1P(=O)(Oc1ccc(Cl)cc1)N1CC1CC` (stereo unspecified), 13.44%.
On to `C/C=C/CC1(CC)C(=O)NC(=S)NC1=O`, for which the Inhibition is -5.93%.
For the compound `CN1CCC2(O)OCCCC2C1` (stereo unspecified), the Inhibition came out at 7.92%.
As to `O=C(OC1CCCCC1)c1ccccc1C(=O)OC1CCCCC1`, the Inhibition was -2.41%.
With `C/C=C(/C)C(=O)O[C@H]1CCN2CC=C(COC(=O)[C@@](O)([C@H](C)OC)C(C)(C)O)[C@H]12` the figure was 15.71%.
`CC(CC(C#N)(c1ccccc1)c1ccccc1)N1CCCCC1` (stereo unspecified): the Inhibition is recorded as -14.2%.
On to `COc1ccc2c(c1O)[C@]13CCN(C)[C@H](C2)[C@@H]1CCC(=O)C3`, for which the Inhibition is 18.77%.
In the case of `CC[C@@]1(O)C(=O)OCc2c1cc1n(c2=O)Cc2cc3c(N)cccc3nc2-1` [9-AMINOCAMPTOTHECIN], the Inhibition was 22.5%.
In the case of `COc1cc(OC)cc(C2(C#N)CCN(C)CC2)c1`, the Inhibition was -19.73%.
As to `CC1(C)NC(=S)C(C)(C)N1N=O`, the Inhibition turned out to be 6.84%.
In the case of `O=C1NC(=O)C(=Cc2ccc3ccccc3c2)C(=O)N1`, the Inhibition is given as -1.2%.
Take `CNC(=O)Oc1c(O)ccnc1C`: the Inhibition is 0.75%.
Regarding `O=C1CCCN1CC#CCN1CCCC1` [OXOTREMORINE], the Inhibition was 4.27%.
Regarding `CC(C)(C)n1cc(C(=O)c2ccccc2)cc1-c1ccccc1`, the Inhibition was found to be 25.58%.
With `CC(C)NC1C2CCC(CC2)C1(O)c1ccc(Cl)c(Cl)c1.CS(=O)(=O)O` (stereo unspecified) the figure was 15.8%; with `Cc1ccc2c(c1)Oc1ccccc1N=C2`, -1.96%.
On to `CN1CCN(c2nc(N)c(Br)c(Cl)n2)CC1`, for which the Inhibition came out at 23.68%.
As for `COc1ccccc1NC(=O)Oc1cccc(OC(=O)c2ccccc2)c1`, the Inhibition worked out at 19.34%.
Consider `CC(C)CC(NC=O)C(=O)O.COc1cc2c(cc1OC)C13CCN4CC5=CCOC6CC(=O)N2C1C6C5CC43` (stereo unspecified), for which the Inhibition is recorded as -11.88%.
Take `COc1cccc2c1C(=O)c1c(O)c3c(c(O)c1C2=O)C[C@@](O)(/C(C)=N\O)C[C@@H]3OC1CC(N)C(O)C(C)O1.Cl` (stereo partly specified): the Inhibition is given as -15.53%.
With `COc1ccc2c(c1)C13CCN(C)C(C2)C1CCC1(C3)OCCO1` (stereo unspecified) the figure was 30.32%.
Consider `N#CC(C#N)=Cc1ccc(C=C(C#N)C#N)cc1`, for which the Inhibition came out at 3.43%.
As for `O=C(NCCCN1CC1)Nc1cccc2ccccc12`, the Inhibition is 5.98%.
Regarding `c1cc(C2N3CCCN2CC3)ccn1` (stereo unspecified), the Inhibition was determined as 22.9%.
On to `C=CCNC(=S)Nc1ccc(OC(=O)Nc2ccc(Cl)c(Cl)c2)cc1`, for which the Inhibition amounted to 25.55%.
Consider `CC(=O)O.CCC(N)Cc1c[nH]c2ccccc12` (stereo unspecified) [ETRYPTAMINE ACETATE], for which the Inhibition came out at 10.79%.
In the case of `ClC1=C(Cl)C(Cl)=C(Cl)C1=C/C=C/c1ccccc1`, the Inhibition is recorded as -10.5%.
With `O=[As](O)(O)c1ccc(/N=N/c2ccc(O)cc2)cc1` the figure was 8.77%; with `CN1CCC(c2c[nH]c3ccccc23)C1` (stereo unspecified), -7.25%; with `COc1ccccc1[As](=O)(O)CC(O)COc1ccc(Cl)cc1Cl` (stereo unspecified), 26.74%.
With `CC1=CC(O)C(O)C2(C)C1CC1OC(=O)C(O)C3C(C)C(O)C4(O)OCC13C42` (stereo unspecified) the figure was 15.44%; with `O=C(Nc1ccc(F)cc1)Oc1cccnc1O`, -3.06%; with `CC12CCC3C(CC=C4CC(O)CCC43C)C1C/C(=C\N1CCCC1)C2=O` (stereo unspecified), 21.38%.
With `C[C@H]1[C@H](C)N1CC(O)Cn1ccnc1[N+](=O)[O-]` (stereo partly specified) the figure was 3%; with `O=[N+]([O-])c1cc(-c2ccc([As](=O)(O)O)cc2)ccc1[As](=O)(O)O`, 15.52%.
With `CC(Cc1ccccc1)NC(N)=O` (stereo unspecified), the Inhibition worked out at 22.04%.
Consider `CCC1CN1P1(=O)OCC(C)([N+](=O)[O-])CO1` (stereo unspecified), for which the Inhibition was 6.15%.
With `Cc1ncc([N+](=O)[O-])n1CCOC(N)=O` [BAMNIDAZOLE] the figure was 10.25%; with `CCOP(=O)(OCC)/C(C#N)=C/c1ccc(-c2ccc(F)cc2F)o1`, 12.92%; with `O=C1N[C@H]2[C@H](O)[C@H](O)[C@@H](O)[C@H](O)[C@@H]2c2cc3c(c(O)c21)OCO3` [PANCRATISTATIN], 8.83%.

What is called Inhibition is the change of the read-out against control, counted positive when it falls.
